Results on one substance are retold here after publication PMC7817668.

Sequences of proteins named here, by UniProt entry; tags and fusion partners are left off.
UniProt O60238: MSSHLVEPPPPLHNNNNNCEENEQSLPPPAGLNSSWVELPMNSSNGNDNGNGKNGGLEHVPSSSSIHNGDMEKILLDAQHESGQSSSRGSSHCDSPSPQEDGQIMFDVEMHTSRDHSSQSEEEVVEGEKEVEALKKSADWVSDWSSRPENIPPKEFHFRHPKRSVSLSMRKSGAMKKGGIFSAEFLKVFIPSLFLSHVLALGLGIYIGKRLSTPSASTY
UniProt O60260: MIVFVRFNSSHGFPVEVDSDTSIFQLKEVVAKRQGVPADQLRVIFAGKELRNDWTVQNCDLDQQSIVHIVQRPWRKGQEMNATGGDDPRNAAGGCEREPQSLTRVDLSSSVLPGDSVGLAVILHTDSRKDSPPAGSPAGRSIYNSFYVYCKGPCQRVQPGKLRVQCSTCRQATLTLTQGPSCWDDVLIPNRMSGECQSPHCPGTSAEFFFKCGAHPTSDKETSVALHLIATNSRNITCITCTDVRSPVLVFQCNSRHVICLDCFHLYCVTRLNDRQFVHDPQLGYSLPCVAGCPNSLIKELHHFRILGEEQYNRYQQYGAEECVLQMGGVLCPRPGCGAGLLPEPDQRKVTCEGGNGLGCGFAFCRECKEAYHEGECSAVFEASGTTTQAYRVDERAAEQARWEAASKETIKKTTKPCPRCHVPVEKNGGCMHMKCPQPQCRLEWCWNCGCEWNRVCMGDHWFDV

No constants are given. Whether binding was seen depends on the method and setting. Binding seen in cells or lysates may run through a third protein. Some entries that bind do so weakly or less than the wild type.

This experiment addresses BNIP3-like (BNIP3L)/NIX (human (endogenous in SH-SY5Y)) (UniProt O60238). The experiment in a line: co-IP; primary antibody immobilised on SureBeads protein G magnetic beads, incubated with total cell lysate (300 ug) at 4 °C overnight; western blot; SH-SY5Y cells with nontargeting or PARK2 siRNA for 24 h, then cortisol for 24 h.

With parkin (from UniProt O60260 1-465), the binding result is given as “binds”.
